T1: GFP-tagged full-length FAM65A (human) (UniProt Q6ZS17)
T1 sequence: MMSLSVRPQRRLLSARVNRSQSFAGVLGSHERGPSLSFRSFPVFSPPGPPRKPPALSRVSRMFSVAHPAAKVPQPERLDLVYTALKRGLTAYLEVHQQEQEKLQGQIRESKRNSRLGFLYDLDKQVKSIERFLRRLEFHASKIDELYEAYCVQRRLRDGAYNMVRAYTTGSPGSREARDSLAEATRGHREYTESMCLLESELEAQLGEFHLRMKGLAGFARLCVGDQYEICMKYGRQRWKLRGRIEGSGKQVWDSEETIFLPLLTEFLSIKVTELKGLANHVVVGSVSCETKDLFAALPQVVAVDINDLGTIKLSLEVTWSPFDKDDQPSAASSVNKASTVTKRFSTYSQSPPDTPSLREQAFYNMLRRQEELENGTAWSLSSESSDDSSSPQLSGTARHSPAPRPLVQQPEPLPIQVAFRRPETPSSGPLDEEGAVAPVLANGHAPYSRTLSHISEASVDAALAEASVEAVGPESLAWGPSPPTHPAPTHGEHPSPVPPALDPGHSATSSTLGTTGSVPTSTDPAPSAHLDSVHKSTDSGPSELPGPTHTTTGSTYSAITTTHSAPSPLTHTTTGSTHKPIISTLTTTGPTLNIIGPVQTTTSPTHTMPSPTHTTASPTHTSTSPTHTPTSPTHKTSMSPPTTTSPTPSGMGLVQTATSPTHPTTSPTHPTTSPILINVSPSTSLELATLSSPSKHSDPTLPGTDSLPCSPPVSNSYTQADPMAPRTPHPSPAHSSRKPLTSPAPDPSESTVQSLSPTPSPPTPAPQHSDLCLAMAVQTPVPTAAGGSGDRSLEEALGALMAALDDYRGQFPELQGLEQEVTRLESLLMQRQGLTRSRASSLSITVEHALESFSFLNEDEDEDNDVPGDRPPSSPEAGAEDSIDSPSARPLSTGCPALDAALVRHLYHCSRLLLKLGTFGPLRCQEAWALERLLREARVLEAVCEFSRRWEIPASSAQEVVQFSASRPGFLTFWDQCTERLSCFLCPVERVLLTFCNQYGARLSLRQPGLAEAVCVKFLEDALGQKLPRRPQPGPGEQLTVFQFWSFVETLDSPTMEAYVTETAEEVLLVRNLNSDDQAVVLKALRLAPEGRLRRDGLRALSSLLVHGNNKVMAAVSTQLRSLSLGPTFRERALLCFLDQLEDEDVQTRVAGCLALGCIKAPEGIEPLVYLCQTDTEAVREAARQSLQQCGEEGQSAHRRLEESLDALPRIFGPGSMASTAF

Protein sequences, listed by entry. Tags and fused reporters are not part of them. Lines headed by an entry give the natural chain unless they say otherwise; changes in a name come on top.
UniProt P61586: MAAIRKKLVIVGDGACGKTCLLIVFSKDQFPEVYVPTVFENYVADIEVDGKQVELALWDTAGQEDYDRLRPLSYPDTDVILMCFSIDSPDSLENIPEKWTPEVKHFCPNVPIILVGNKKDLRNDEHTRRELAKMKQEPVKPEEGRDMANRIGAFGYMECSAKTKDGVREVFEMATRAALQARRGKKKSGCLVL
UniProt P63151: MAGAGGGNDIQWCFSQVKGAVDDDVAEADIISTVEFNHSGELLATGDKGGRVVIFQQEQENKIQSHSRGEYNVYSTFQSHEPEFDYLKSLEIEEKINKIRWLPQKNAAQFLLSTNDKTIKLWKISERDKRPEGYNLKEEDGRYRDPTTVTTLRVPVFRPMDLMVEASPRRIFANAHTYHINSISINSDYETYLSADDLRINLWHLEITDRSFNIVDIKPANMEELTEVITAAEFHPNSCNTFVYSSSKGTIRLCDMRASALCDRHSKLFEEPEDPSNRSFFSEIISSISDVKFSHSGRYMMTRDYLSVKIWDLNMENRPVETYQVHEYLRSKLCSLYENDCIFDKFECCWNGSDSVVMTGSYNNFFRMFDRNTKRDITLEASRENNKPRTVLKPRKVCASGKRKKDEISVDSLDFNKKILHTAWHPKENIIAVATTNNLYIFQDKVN
UniProt P62745: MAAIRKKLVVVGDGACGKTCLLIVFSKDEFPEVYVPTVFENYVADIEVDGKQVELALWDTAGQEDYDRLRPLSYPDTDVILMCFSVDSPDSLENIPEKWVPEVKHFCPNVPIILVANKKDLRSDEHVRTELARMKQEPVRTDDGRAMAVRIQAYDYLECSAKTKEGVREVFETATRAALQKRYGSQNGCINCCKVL
UniProt P08134: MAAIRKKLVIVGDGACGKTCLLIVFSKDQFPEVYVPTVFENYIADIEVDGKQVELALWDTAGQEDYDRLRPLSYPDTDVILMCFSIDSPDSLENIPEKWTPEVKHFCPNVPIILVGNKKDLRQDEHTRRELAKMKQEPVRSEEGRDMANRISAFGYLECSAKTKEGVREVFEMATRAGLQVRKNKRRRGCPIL
UniProt P62258: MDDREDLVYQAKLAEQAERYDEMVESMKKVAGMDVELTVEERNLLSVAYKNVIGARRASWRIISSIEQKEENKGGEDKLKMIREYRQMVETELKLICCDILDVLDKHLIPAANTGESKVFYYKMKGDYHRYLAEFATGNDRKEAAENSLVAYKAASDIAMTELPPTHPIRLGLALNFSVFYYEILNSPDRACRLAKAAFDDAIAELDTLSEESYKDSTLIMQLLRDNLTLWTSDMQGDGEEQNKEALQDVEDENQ
UniProt P67775: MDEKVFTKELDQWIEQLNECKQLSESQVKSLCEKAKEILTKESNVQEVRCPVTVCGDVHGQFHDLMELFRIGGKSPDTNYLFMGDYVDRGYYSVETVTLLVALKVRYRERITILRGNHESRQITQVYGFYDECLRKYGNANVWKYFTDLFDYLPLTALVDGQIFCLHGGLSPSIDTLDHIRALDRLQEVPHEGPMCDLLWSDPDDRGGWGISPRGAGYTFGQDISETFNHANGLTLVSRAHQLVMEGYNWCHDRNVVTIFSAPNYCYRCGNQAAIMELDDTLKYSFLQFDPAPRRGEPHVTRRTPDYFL
UniProt Q9BUL8: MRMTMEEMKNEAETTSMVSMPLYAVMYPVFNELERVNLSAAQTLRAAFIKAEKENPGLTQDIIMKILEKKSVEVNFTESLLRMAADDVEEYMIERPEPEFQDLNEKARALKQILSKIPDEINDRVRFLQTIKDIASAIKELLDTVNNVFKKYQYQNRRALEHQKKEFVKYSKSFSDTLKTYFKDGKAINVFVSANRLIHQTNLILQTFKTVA

B1: FAM65A (endogenous) (protein, UniProt Q6ZS17 1-1223)
chain: MMSLSVRPQRRLLSARVNRSQSFAGVLGSHERGPSLSFRSFPVFSPPGPPRKPPALSRVSRMFSVAHPAAKVPQPERLDLVYTALKRGLTAYLEVHQQEQEKLQGQIRESKRNSRLGFLYDLDKQVKSIERFLRRLEFHASKIDELYEAYCVQRRLRDGAYNMVRAYTTGSPGSREARDSLAEATRGHREYTESMCLLESELEAQLGEFHLRMKGLAGFARLCVGDQYEICMKYGRQRWKLRGRIEGSGKQVWDSEETIFLPLLTEFLSIKVTELKGLANHVVVGSVSCETKDLFAALPQVVAVDINDLGTIKLSLEVTWSPFDKDDQPSAASSVNKASTVTKRFSTYSQSPPDTPSLREQAFYNMLRRQEELENGTAWSLSSESSDDSSSPQLSGTARHSPAPRPLVQQPEPLPIQVAFRRPETPSSGPLDEEGAVAPVLANGHAPYSRTLSHISEASVDAALAEASVEAVGPESLAWGPSPPTHPAPTHGEHPSPVPPALDPGHSATSSTLGTTGSVPTSTDPAPSAHLDSVHKSTDSGPSELPGPTHTTTGSTYSAITTTHSAPSPLTHTTTGSTHKPIISTLTTTGPTLNIIGPVQTTTSPTHTMPSPTHTTASPTHTSTSPTHTPTSPTHKTSMSPPTTTSPTPSGMGLVQTATSPTHPTTSPTHPTTSPILINVSPSTSLELATLSSPSKHSDPTLPGTDSLPCSPPVSNSYTQADPMAPRTPHPSPAHSSRKPLTSPAPDPSESTVQSLSPTPSPPTPAPQHSDLCLAMAVQTPVPTAAGGSGDRSLEEALGALMAALDDYRGQFPELQGLEQEVTRLESLLMQRQGLTRSRASSLSITVEHALESFSFLNEDEDEDNDVPGDRPPSSPEAGAEDSIDSPSARPLSTGCPALDAALVRHLYHCSRLLLKLGTFGPLRCQEAWALERLLREARVLEAVCEFSRRWEIPASSAQEVVQFSASRPGFLTFWDQCTERLSCFLCPVERVLLTFCNQYGARLSLRQPGLAEAVCVKFLEDALGQKLPRRPQPGPGEQLTVFQFWSFVETLDSPTMEAYVTETAEEVLLVRNLNSDDQAVVLKALRLAPEGRLRRDGLRALSSLLVHGNNKVMAAVSTQLRSLSLGPTFRERALLCFLDQLEDEDVQTRVAGCLALGCIKAPEGIEPLVYLCQTDTEAVREAARQSLQQCGEEGQSAHRRLEESLDALPRIFGPGSMASTAF

Results are given in words; binding and its absence hold for the method and conditions named. In cells and extracts the contact can be indirect. Here binding means that the protein was enriched with, or labelled near, the bait; the list need not be complete. For part of these data: Sequences can lack the tags named with a protein.

The target in one assay is GTP-bound GST–RHOA (UniProt P61586). Briefly: affinity purification with mass spectrometry; purified GTP-bound GST–RHOA (or GST only) immobilised on glutathione–Sepharose beads, SILAC-labelled HeLa lysates, 1 h at 4°C, 50 mM Tris-HCl pH 7.5, 150 mM NaCl, 1% NP-40, 10 mM MgCl2; only the target purified.
On to B1, for which the binding entry is reported as “binds”.

In a further assay the target is T1, GFP-tagged full-length FAM65A (human). Briefly: affinity purification with mass spectrometry; anti-GFP immunoprecipitation from SILAC-labelled HeLa cells overexpressing GFP–FAM65A versus GFP-only, FASP digestion, LC-MS/MS.
As for “PP2A regulatory subunit PPP2R2A (endogenous) (from UniProt P63151 1-447)”, the binding entry is listed as “binds”. Regarding “RHOA (endogenous) (from UniProt P61586 1-193)”, the binding result was “binds”. “RHOB (endogenous) (from UniProt P62745 1-196)”: the binding result is reported as “binds”. On to “RHOC (endogenous) (from UniProt P08134 1-193)”, for which the binding result is recorded as “binds”. For the molecule “YWHAE (endogenous) (from UniProt P62258 1-255)”, the binding result was “binds”. With “catalytic PP2A subunit (endogenous) (from UniProt P67775) (enzyme)”, the binding result is “binds”. With “cerebral cavernous malformation-3 protein (CCM3), endogenous (from UniProt Q9BUL8 1-212)”, the binding result was “binds”. Regarding “scaffolding PP2A subunit (endogenous) (human (endogenous in HeLa))”, the binding result is on record as “binds”.

The record behind these values is paper PMC5201024.
